Publication doi:10.1101/2020.03.25.006999
These are yes or no findings as the source states them, for the method shown. In cells and extracts the contact can be indirect. Some results given as binding are weak or reduced against the parent protein; the word gives no strength.

The chains behind the UniProt entries cited, without tags or fusion partners. Residues count along the entry.
UniProt Q68DV7, residues 24-783: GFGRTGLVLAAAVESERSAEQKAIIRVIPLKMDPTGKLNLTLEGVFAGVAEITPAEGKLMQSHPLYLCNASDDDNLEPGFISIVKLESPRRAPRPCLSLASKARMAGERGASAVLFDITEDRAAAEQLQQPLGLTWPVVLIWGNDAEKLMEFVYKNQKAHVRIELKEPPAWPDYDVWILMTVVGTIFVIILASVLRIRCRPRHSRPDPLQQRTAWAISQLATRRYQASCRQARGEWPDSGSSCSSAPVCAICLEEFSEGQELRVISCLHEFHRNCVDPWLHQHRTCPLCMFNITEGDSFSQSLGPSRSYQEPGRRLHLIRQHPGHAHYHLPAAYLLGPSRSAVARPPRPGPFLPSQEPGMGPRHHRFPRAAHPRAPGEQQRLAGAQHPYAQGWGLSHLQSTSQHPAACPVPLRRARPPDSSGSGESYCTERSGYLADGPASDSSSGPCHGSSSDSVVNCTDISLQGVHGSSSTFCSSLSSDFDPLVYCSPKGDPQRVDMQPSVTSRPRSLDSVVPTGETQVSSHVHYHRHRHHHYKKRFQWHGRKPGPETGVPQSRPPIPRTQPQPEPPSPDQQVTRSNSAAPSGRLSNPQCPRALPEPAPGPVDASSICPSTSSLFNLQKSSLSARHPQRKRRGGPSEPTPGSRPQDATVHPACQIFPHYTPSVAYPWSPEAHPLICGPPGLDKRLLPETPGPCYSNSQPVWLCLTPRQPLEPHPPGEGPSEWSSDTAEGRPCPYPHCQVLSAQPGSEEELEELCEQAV
UniProt Q9ULT6, residues 56-936: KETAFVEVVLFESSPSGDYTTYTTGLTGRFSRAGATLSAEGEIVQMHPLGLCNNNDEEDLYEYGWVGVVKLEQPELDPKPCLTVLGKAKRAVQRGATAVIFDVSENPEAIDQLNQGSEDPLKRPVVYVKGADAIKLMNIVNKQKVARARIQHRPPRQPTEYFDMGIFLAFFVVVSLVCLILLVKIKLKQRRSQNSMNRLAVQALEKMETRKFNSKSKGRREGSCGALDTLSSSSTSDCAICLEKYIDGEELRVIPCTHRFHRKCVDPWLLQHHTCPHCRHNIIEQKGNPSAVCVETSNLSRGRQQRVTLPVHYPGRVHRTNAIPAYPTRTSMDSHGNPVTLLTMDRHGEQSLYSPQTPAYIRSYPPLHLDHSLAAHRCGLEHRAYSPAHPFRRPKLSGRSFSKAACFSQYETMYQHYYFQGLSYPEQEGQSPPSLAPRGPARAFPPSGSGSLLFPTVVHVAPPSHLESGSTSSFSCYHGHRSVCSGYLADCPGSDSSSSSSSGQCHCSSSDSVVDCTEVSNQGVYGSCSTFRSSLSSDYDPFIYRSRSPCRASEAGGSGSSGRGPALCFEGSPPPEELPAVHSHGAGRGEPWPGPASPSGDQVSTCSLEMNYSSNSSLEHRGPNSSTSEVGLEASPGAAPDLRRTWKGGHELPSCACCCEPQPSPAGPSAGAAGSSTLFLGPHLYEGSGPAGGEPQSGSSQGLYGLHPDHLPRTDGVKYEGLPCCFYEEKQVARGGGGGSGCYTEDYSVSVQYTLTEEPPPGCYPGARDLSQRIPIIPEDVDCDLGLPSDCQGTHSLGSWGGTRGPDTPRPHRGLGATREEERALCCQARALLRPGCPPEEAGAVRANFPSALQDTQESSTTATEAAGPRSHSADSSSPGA

Tests used:
[1] = target: Myc-FLAG-tagged RNF43 (wild type) (human) (UniProt Q68DV7); assay: co-IP
[2] = target: RNF43 (wild type), co-expressed as two differently tagged copies: 3XFLAG-RNF43 and RNF43-MYC (human) (UniProt Q68DV7); assay: co-IP

For HA-ZNRF3 (from UniProt Q9ULT6 56-936), the binding [1] was “binds”.
For “RNF43 (wild type), co-expressed as two differently tagged copies: 3XFLAG-RNF43 and RNF43-MYC (from UniProt Q68DV7 24-783)”, the binding [2] was “binds”.
